From US8865914B2, “Fluorescent probes for detection of copper” (The Regents of the University of California, priority 2012, dated 2014)
Some entries share one result that the patent states for a list of compounds.

Experiment: Binding stoichiometry with Cu(I) (Job's plot / Hill plot)
Settings: Job's plot (CS dyes), Hill plot (Tokyo Green dyes)

Compound	binding stoichiometry with Cu(I)
CCCN1/C(=C/C=C2\CCCC(/C=C/C3=[N+](CCC)c4ccccc4C3(C)C)=C2Oc2ccc(N(CCSCCSCC)CCSCCSCC)cc2)C(C)(C)c2ccccc21.[I-] [CS788]	1 to 1 binding
CSCCCNc1ccc(OC2=C(/C=C/C3=[N+](CCC(=O)OCOC(C)=O)c4ccccc4C3(C)C)CCC/C2=C\C=C2\N(CCC(=O)OCOC(C)=O)c3ccccc3C2(C)C)cc1SCCCSC.[Br-] [CS790AM]	1 to 1 binding
